# Measurements: article PMC9998874
# Chains of the proteins cited; added tags and fusions are not shown.
# UniProt Q13185: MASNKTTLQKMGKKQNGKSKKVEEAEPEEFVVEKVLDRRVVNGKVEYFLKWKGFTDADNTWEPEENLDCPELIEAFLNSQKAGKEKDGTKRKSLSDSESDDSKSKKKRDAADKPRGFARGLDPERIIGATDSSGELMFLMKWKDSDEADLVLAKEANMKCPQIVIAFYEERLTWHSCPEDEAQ
# UniProt Q92769: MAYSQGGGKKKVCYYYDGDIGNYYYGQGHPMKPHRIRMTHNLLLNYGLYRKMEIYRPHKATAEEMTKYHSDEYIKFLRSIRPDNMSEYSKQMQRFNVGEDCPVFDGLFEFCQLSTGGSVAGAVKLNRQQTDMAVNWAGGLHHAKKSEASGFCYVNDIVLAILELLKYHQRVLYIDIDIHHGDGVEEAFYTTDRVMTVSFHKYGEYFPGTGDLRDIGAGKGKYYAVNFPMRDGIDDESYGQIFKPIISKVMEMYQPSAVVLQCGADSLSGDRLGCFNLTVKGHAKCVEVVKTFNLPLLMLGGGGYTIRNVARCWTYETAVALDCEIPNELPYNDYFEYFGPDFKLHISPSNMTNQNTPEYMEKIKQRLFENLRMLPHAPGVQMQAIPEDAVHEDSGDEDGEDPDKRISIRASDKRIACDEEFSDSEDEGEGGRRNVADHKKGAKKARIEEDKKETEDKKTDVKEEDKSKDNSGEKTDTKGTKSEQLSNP
# UniProt Q14676: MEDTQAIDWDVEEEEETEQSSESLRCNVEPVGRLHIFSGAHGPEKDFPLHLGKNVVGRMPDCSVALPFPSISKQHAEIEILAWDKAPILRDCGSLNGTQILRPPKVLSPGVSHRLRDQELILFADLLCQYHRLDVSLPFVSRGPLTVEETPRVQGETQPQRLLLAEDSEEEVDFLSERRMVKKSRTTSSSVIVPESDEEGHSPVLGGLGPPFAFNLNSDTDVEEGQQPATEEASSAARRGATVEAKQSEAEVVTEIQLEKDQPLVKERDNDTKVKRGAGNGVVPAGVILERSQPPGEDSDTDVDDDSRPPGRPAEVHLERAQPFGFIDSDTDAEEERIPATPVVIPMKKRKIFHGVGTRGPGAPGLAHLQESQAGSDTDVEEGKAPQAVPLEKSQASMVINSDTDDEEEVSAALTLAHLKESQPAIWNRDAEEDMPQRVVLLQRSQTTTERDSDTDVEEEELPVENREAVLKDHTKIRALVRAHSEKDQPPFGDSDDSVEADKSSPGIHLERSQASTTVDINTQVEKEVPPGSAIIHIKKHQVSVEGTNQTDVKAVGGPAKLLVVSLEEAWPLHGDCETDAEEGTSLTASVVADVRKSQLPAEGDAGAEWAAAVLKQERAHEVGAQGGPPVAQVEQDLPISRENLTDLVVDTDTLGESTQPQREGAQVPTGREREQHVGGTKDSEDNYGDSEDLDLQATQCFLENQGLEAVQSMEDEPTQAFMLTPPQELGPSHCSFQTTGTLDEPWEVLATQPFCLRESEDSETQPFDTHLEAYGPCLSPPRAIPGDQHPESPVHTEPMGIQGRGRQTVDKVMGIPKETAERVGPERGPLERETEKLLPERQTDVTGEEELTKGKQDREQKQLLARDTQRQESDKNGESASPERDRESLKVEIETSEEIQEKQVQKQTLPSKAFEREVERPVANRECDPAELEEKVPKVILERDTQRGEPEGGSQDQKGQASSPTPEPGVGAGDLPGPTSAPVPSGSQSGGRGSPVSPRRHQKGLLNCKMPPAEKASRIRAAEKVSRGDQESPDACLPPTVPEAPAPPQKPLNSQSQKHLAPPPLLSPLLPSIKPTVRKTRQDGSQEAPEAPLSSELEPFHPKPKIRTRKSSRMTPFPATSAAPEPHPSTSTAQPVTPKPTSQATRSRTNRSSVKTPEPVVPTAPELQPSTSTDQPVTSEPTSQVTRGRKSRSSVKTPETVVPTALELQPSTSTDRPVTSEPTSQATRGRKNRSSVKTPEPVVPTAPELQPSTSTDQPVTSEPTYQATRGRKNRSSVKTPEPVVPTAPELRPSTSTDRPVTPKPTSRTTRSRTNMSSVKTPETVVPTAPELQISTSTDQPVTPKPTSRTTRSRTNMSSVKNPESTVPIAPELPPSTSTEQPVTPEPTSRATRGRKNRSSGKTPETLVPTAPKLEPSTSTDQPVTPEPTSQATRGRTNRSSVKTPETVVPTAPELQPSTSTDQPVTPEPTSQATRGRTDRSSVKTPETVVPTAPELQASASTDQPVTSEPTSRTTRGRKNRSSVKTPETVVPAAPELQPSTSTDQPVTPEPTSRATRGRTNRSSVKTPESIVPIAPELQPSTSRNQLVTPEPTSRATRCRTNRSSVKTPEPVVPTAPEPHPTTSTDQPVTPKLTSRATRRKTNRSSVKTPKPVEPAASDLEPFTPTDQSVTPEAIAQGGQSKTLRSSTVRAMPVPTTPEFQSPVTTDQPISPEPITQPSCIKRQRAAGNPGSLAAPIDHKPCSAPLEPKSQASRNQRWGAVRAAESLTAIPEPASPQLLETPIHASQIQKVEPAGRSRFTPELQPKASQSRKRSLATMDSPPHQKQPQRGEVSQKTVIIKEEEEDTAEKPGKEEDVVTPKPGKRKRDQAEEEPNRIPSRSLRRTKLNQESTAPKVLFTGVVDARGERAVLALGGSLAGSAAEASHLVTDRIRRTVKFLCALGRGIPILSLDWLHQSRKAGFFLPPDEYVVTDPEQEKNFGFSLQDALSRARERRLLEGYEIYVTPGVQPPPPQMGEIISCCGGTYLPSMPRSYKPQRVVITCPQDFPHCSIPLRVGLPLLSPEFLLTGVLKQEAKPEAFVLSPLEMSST
# UniProt Q13547: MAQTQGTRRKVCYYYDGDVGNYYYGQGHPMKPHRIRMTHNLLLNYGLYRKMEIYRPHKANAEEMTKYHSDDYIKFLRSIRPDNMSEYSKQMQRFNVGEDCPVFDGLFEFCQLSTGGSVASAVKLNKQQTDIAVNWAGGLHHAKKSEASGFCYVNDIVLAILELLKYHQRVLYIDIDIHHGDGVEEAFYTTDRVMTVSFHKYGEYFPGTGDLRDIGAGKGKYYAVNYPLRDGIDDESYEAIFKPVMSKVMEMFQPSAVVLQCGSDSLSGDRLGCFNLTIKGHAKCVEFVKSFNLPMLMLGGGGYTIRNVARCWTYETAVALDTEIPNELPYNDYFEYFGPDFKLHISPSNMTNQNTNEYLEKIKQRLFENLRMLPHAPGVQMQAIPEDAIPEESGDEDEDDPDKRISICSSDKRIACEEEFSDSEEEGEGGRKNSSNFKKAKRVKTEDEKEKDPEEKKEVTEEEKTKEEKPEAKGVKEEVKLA
# Molecular target: flag-tagged HP1γ (UniProt Q13185)
# Test: affinity purification with mass spectrometry; flag-tagged HP1γ overexpressed in HEK293T, HP1γ complex immunoprecipitated by flag, silver staining and mass spectrometry
row,binding,Substance
1,binds,"HDAC2, endogenous in HEK293T (from UniProt Q92769 1-488) (enzyme)"
2,binds,"MDC1, endogenous in HEK293T (from UniProt Q14676 1-2089)"
3,binds,"histone deacetylase 1 (HDAC1), endogenous in HEK293T (from UniProt Q13547 1-482) (enzyme)"

# These are yes or no findings as the source states them, for the method shown. In cells and extracts the contact can be indirect. A yes stands for co-enrichment or nearness to the bait. Other partners may have been found.
